Measured values reported in US20150232852.
For at least one entry, the source does not settle the construct or the ends of the probe. For some of these results: Negatives hold for the conditions tested. For some of these results: Where a protein sequence is shown, tags need not be part of it. For some of these results: The comparison behind a weaker result is the experiment's own reference, which may not be listed here.

The chains behind the UniProt entries cited, without tags or fusion partners. Residues count along the entry.
UniProt P09681, 52-93: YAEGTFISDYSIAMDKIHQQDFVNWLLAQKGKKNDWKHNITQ
UniProt P01275, 53-81: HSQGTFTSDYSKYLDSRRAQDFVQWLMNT
UniProt P01275, 98-128: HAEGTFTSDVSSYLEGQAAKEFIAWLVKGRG
UniProt P01275, 53-89: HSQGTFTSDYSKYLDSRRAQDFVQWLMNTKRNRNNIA

How the values were obtained:
[1] = molecular target: GIP (glucose-dependent insulinotropic polypeptide) (Homo sapiens) (UniProt P09681); test: activity in cells; settings: L-DNA, RIN-m5F cells, single-stranded DNA, mirror-image nucleic acid, dose not given here
[2] = molecular target: glucagon, free peptide (cAMP assay) (Homo sapiens) (UniProt P01275); test: activity in cells; settings: mirror-image nucleic acid; for functional effect of the aptamer: purified recombinant protein, synthetic backbone, dose not given here; for IC50: 5'-40 kDa PEG, glucagon-induced cAMP, 37 C
[3] = molecular target: glucagon, L-form, biotinylated (glucagon1-29-AEEAc-AEEAc-biotin) (Homo sapiens) (UniProt P01275); test: competition with a labelled probe; settings: mirror-image nucleic acid
[4] = molecular target: GLP-1(7-37) (Homo sapiens) (UniProt P01275); test: competition with a labelled probe; settings: not recognized, mirror-image nucleic acid
[5] = molecular target: oxyntomodulin (OXM) (UniProt P01275); test: competition with a labelled probe; settings: comparable to glucagon, mirror-image nucleic acid
[6] = molecular target: glucagon, L-form, biotinylated (glucagon1-29-AEEAc-AEEAc-biotin) (Homo sapiens) (UniProt P01275); test: SPR; settings: synthetic protein, mirror-image nucleic acid
[7] = system: GLP-2(1-33); test: competition with a labelled probe; settings: 5'-40 kDa PEG, not recognized, competitor up to 2000 nM, mirror-image nucleic acid
[8] = molecular target: T1, Prepro-VIP(81-122) (PHV-42) (Homo sapiens) (UniProt P01282); test: competition with a labelled probe; settings: 5'-40 kDa PEG, mirror-image nucleic acid
T1 sequence: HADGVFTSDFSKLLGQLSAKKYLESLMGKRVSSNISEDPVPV

[9] = L-DNA with six L-ribonucleotides as printed in Table 1, competitive pull-down, 37 C, synthetic protein, synthetic backbone
[10] = L-DNA with L-ribonucleotides rG,rG,rG,rG,rA,rA at central-stretch positions 2,8,11,12,22,23, not reduced vs 257-E1-6xR-001, synthetic protein, variant of 257-E1-6xR-001
[11] = L-DNA with L-ribonucleotides rG,rG,rG,rG,rA,rA at central-stretch positions 2,8,11,12,22,23, reduced vs 257-E1-6xR-001, synthetic protein, variant of 257-E1-6xR-001
[12] = L-DNA with six L-ribonucleotides, purified recombinant protein, synthetic backbone
[13] = L-DNA with seven L-ribonucleotides, purified recombinant protein, synthetic backbone

ACTCGAGAGGAAAGGTTGGTAAAGGTTCGGTTGGATTCACTCGAGT [259-H6-002 (spiegelmer)]
functional effect of the aptamer ([1]; dose-dependent inhibition of GIP-induced cAMP, variant of 259-H6-002 (aptamer)): active
functional effect of the aptamer ([2]; L-DNA, inhibits glucagon-induced cAMP, CHO cells with human glucagon receptor): active

ACTCGAGAGGAAAGGTTGGTAAAGGTTCGGTTGGATTCACTCGAGT [259-H6-002-R13]
functional effect of the aptamer ([2]; L-DNA with L-ribo A at position 13, improved vs 259-H6-002, variant of 259-H6-002 (spiegelmer)): active

ACTCGAGAGGAAAGGTTGGTAAAGGTTCGGTTGGAUTCACTCGAGT [259-H6-002-R13/24/36]
functional effect of the aptamer ([2]; L-DNA with L-ribo rA13, rG24, rU36, further improved vs 259-H6-002-R13, variant of 259-H6-002 (spiegelmer)): active

AGTGGGGAAATGGGAGGGCTAGGTGGAAGGAATCTGAGCTACT [257-E1-6xR-004]
binding result [3, 9]: binds

CGCGGGGAAATGGGAGGGCTAGGTGGAAGGAATCTGAGCCGCG [257-E1-6xR-020]
binding result [3, 10]: binds

CGGGGAAATGGGAGGGCTAGGTGGAAGGAATCTGAGCCG [257-E1-6xR-031]
binding result [3, 11]: binds more weakly

GAGCCGGGAAATGGGAGGGCTAGGTGGAAGGAATCTGAGCGGCTC [257-E1-6xR-014]
binding result [3, 9]: binds

GAGCGGGGAAATGGGAGGGCTAGGTGGAAGGAATCTGAGCCGCTC [257-E1-6xR-013]
binding result [3, 10]: binds

GAGTCGGGAAATGGGAGGGCTAGGTGGAAGGAATCTGAGCGACTC [257-E1-6xR-017]
binding result [3, 9]: binds

GAGTGGGGAAATGGGAGGGCTAGGTGGAAGGAATCTGAGCCACTC [257-E1-6xR-015]
binding result [3, 9]: binds

GAGTGGGGAAATGGGAGGGCTAGGTGGAAGGAATCTGAGCTACTC [257-E1-6xR-003]
binding result [3, 9]: binds

GCAGTGGGGAAATGGGAGGGCTAGGTGGAAGGAATCTGAGCTACTGC [257-E1-001 (spiegelmer)]
functional effect of the aptamer ([1]; no inhibition of GIP-induced cAMP, variant of 257-E1-001 (aptamer)): not active

GCAGTGGGGAAATGGGAGGGCTAGGTGGAAGGAATCTGAGCTACTGC [257-E1-6xR-001]
binding result [4, 12]: no binding
binding result [5, 12]: binds

GCCGAGAGGAAAGGTTGGTAAAGGTTCGGTTGGATTCACTCGGC [259-H6-014-R12 (spiegelmer)]
binding result ([6]; L-DNA with L-rA12, improved vs 259-H6-002, variant of 259-H6-002 (spiegelmer)): binds

GCCGAGAGGAAAGGTTGGTAAAGGTTCGGTTGGAUTCACTCGGC [259-H6-014-R12/23/29/35/38]
binding result ([6]; L-DNA with L-rA12, L-rG23, L-rG29, L-rU35, L-rA38, improved vs 259-H6-002, variant of 259-H6-014-R12 (spiegelmer)): binds

GCCGAGAGGAAAGGTTGGTAAAGGTTCGGTTGGAUTCACTCGGC [259-H6-014-R12/23/35]
binding result ([6]; L-DNA with L-rA12, L-rG23, L-rU35, improved vs 259-H6-002, variant of 259-H6-014-R12 (spiegelmer)): binds

GCGCCGGGAAATGGGAGGGCTAGGTGGAAGGAATCTGAGCGGCGC [257-E1-6xR-012]
binding result [3, 10]: binds

GCGCGGGGAAATGGGAGGGCTAGGTGGAAGGAATCTGAGCCGCGC [257-E1-6xR-010]
binding result [3, 10]: binds

GCGCGGGGAAATGGGAGGGCTAGGTGGAAGGAATCTGAGCCGCGC [257-E1-7xR-023]
binding result ([3]; L-DNA with L-ribonucleotides rG,rG,rG,rG,rT,rA,rA at central-stretch positions 2,8,11,12,19,22,23, improved vs 257-E1-001, similar to 257-E1-6xR-010, synthetic protein, variant of 257-E1-6xR-010): binds

GCGCGGGGAAATGGGAGGGCTAGGTGGAAGGAATCTGAGCTGCGC [257-E1-6xR-008]
binding result [3, 10]: binds

GCGGGAAATGGGAGGGCTAGGTGGAAGGAATCTGAGCGC [257-E1-6xR-030]
binding result [3, 11]: binds more weakly

GCGGGAAATGGGAGGGCTAGGTGGAAGGAATCTGAGCGC [257-E1-7xR-037]
binding result ([3]; L-DNA with L-ribonucleotides rG,rG,rG,rG,rT,rA,rA at central-stretch positions 2,8,11,12,19,22,23, almost the same affinity as 257-E1-7xR-023, synthetic …, variant of 257-E1-7xR-023): binds
binding result [4, 13]: no binding
binding result [5, 13]: binds

GCGGGAAATGGGAGGGCTAGGTGGAAGGAATCTGAGCGC [NOX-G15 (257-E1-6xR-030-5'-PEG)]
binding result ([6]; 5'-40 kDa PEG, L-DNA with L-ribonucleotides rG,rG,rG,rG,rA,rA at central-stretch positions 2,8,11,12,22,23, 37 C, variant of 257-E1-6xR-030): binds
IC50 ([2]; L-DNA with L-ribonucleotides rG,rG,rG,rG,rA,rA at central-stretch positions 2,8,11,12,22,23, CHO cells with human glucagon receptor, variant of 257-E1-6xR-030): 3.44 nM
binding result ([7]; L-DNA with L-ribonucleotides rG,rG,rG,rG,rA,rA at central-stretch positions 2,8,11,12,22,23, variant of 257-E1-6xR-030): no binding
binding result ([4]; 5'-40 kDa PEG, L-DNA with L-ribonucleotides rG,rG,rG,rG,rA,rA at central-stretch positions 2,8,11,12,22,23, competitor up to 2000 nM, variant of 257-E1-6xR-030): no binding
binding result ([8]; L-DNA with L-ribonucleotides rG,rG,rG,rG,rA,rA at central-stretch positions 2,8,11,12,22,23, not recognized, competitor up to 2000 nM, variant of 257-E1-6xR-030): no binding
binding result ([5]; 5'-40 kDa PEG, L-DNA with L-ribonucleotides rG,rG,rG,rG,rA,rA at central-stretch positions 2,8,11,12,22,23, variant of 257-E1-6xR-030): binds

GCGGGAAATGGGAGGGCTAGGTGGAAGGAATCTGAGCGC [NOX-G16 (257-E1-7xR-037-5'-PEG)]
binding result ([6]; 5'-40 kDa PEG, L-DNA with L-ribonucleotides rG,rG,rG,rG,rT,rA,rA at central-stretch positions 2,8,11,12,19,22,23, 37 C, NOX-G16 kinetics (FIG. 16), variant of 257-E1-7xR-037): binds
IC50 ([2]; L-DNA with L-ribonucleotides rG,rG,rG,rG,rT,rA,rA at central-stretch positions 2,8,11,12,19,22,23, CHO cells with human glucagon receptor, variant of 257-E1-7xR-037): 2.43 nM
binding result ([7]; L-DNA with L-ribonucleotides rG,rG,rG,rG,rT,rA,rA at central-stretch positions 2,8,11,12,19,22,23, variant of 257-E1-7xR-037): no binding
binding result ([4]; 5'-40 kDa PEG, L-DNA with L-ribonucleotides rG,rG,rG,rG,rT,rA,rA at central-stretch positions 2,8,11,12,19,22,23, competitor up to 2000 nM, variant of 257-E1-7xR-037): no binding
binding result ([8]; L-DNA with seven L-ribonucleotides, competitive Biacore, 37 C, purified recombinant protein, synthetic backbone): no binding
binding result ([5]; 5'-40 kDa PEG, L-DNA with L-ribonucleotides rG,rG,rG,rG,rT,rA,rA at central-stretch positions 2,8,11,12,19,22,23, variant of 257-E1-7xR-037): binds

GCGGGGAAATGGGAGGGCTAGGTGGAAGGAATCTGAGCCGC [257-E1-6xR-029]
binding result [3, 11]: binds more weakly

GCGTCGGGAAATGGGAGGGCTAGGTGGAAGGAATCTGAGCGACGC [257-E1-6xR-018]
binding result [3, 10]: binds

GCGTGGGGAAATGGGAGGGCTAGGTGGAAGGAATCTGAGCCACGC [257-E1-6xR-016]
binding result [3, 10]: binds

GCGTGGGGAAATGGGAGGGCTAGGTGGAAGGAATCTGAGCTACGC [257-E1-6xR-006]
binding result [3, 9]: binds

GGCGGGGAAATGGGAGGGCTAGGTGGAAGGAATCTGAGCCGCC [257-E1-6xR-019]
binding result ([3]; L-DNA with L-ribonucleotides rG,rG,rG,rG,rA,rA at central-stretch positions 2,8,11,12,22,23, among best of five-nucleotide terminal stretches, synthetic …, variant of 257-E1-6xR-001): binds

GGGAAATGGGAGGGCTAGGTGGAAGGAATCTGAGC [257-E1-6xR-033]
binding result [3, 11]: binds more weakly

GGGCCGGGAAATGGGAGGGCTAGGTGGAAGGAATCTGAGCGGCCC [257-E1-6xR-011]
binding result [3, 10]: binds

GGGCGGGGAAATGGGAGGGCTAGGTGGAAGGAATCTGAGCCGCCC [257-E1-6xR-009]
binding result [3, 9]: binds

GGGCGGGGAAATGGGAGGGCTAGGTGGAAGGAATCTGAGCTGCCC [257-E1-6xR-007]
binding result [3, 9]: binds

GGGGAAATGGGAGGGCTAGGTGGAAGGAATCTGAGCC [257-E1-6xR-032]
binding result [3, 11]: binds more weakly

GGGTGGGGAAATGGGAGGGCTAGGTGGAAGGAATCTGAGCTACCC [257-E1-6xR-005]
binding result [3, 9]: binds
